At least one structure is not confirmed: it was looked up by name or label, or the drawing left a doubt.
How the values were obtained:
Assay type in all cases: cell-based
[1] = tested on: gene TP53 carrying an UGA nonsense mutation at codon 196 (Calu-6 cells); assay: Western blot of p53 re-expression in Calu-6 cells; conditions: G418 at 600 μM
Experimental: (§1) For the purpose of validating the above screening results, the correction of nonsense mutations was measured for endogenous genes carrying nonsense mutations in an immortalised cell line of lung cancer Calu-6 (ATCC, USA) comprising a UGA mutation in the codon 196 of the gene TP53 (FIG. 2A), an immortalised cell line Caco-2 carrying a UAG mutation at the level of codon 204 (FIG. 2B) and an immortalised cell line Caov-3 carrying a UAA nonsense mutation at the level of codon 136 (FIG. 2C).
(§2) The proteins are extracted from the cell in a lysis buffer, then analysed by SDS-PAGE gel at 10% as previously described in Gonzalez-Hilarion et al. (2012). Briefly, after migration, the proteins are transferred onto a nitrocellulose membrane and placed in the presence of an anti-p53 antibody (D01; Santa-Cruz), and then of a secondary anti-mouse antibody (Jackson Immuno Research).

[2] = tested on: gene TP53 carrying an UAG mutation at codon 204 (Caco-2 cells); assay: Western blot of p53 re-expression in Caco-2 cells
Experimental: as §1, §2

[3] = tested on: gene TP53 carrying an UAA nonsense mutation at codon 136 (Caov-3 cells); assay: Western blot of p53 re-expression in Caov-3 cells
Experimental: as §1, §2

[4] = tested on: p53 target genes p21 and Noxa in Calu-6 cells; assay: Expression of p53 target genes p21 and Noxa by RT-PCR; conditions: G418 600 μM
Excerpt: The RNAs were purified with RNazol (MRC) and underwent a RT-PCR as described in Gonzalez-Hilarion et al. (2012). The resulting cDNA were then amplified after 35 cycles of PCR using the p21 mRNA primers (sense: 5′-[…]-3′; SEQ ID NO: 5; antisense 5′-[…]-3′; SEQ ID NO: 6); GADD45 mRNA (sense: 5′-[…]-3′; SEQ ID NO: 7; antisense 5′-[…]-3′; SEQ ID NO: 8); NOXA mRNA (sense: 5′-[…]-3′; SEQ ID NO: 9; antisense 5′-[…]-3′; SEQ ID NO: 10).

CN[C@@H]1[C@@H](O)[C@@H](O[C@@H]2[C@@H](O)[C@H](O[C@H]3O[C@H]([C@@H](C)O)[C@@H](O)[C@H](O)[C@H]3N)[C@@H](N)C[C@H]2N)OC[C@]1(C)O [G418, reference compound]
quantity of protein p53 synthesised [1]: identical to that observed with DAP at 6.25 μM
quantity of truncated protein p53 (p53 TR) ([1]; versus DAP): greater quantity of truncated protein p53
re-expression of protein p53 [2]: DAP does not make it possible to re-express the protein, unlike G418
re-expression of protein p53 [3]: feeble re-expression
functional expression of p53 (target genes p21, Noxa) [4]: less important than with DAP

From patent publication US11179398B2, “Purine derivative for use in the treatment or prevention of diseases caused by a nonsense mutation” (MUSÉUM NATIONAL D'HISTOIRE NATURELLE, priority 2016, dated 2021)
